Results as given in publication PMC9103046.
These are yes or no findings as the source states them, for the method shown. Binding seen in cells or lysates may run through a third protein. Some entries that bind do so weakly or less than the wild type. Values belong to the binder of their own block, whether it stands above or below them.

Assays:
[1] = target: T1, Stromal cell-derived factor 2-like 1 (Sdf2l1) (mouse (endogenous in pancreatic acinar cells of PRSS1Tg mice)) (UniProt Q9ESP1); test: co-IP; acinar cell-derived proteins precipitated with anti-St13 or anti-Sdf2l1 antibodies
T1 sequence: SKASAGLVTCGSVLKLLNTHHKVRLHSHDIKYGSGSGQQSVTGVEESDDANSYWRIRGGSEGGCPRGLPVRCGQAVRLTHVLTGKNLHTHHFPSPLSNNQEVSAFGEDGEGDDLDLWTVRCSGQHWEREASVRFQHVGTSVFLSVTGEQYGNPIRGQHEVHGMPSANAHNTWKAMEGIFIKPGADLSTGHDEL

[2] = target: T2, St13 (mouse (endogenous in pancreatic acinar cells of PRSS1Tg mice)) (UniProt Q99L47); test: as above
T2 sequence: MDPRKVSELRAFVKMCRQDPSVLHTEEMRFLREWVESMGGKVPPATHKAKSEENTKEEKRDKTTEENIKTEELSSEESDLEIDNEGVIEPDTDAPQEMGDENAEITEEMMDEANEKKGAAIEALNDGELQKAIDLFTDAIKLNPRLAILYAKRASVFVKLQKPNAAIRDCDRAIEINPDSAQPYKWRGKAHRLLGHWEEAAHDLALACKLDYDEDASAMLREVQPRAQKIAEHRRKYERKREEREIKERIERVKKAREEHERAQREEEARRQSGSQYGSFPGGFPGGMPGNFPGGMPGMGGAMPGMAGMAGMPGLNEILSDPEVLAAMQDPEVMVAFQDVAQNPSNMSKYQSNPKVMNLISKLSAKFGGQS

binding [1]: binds
B1: St13 (protein, UniProt Q99L47 1-371)
chain: T2 sequence

binding [2]: binds
B2: Stromal cell-derived factor 2-like 1 (Sdf2l1) (protein, UniProt Q9ESP1 29-221)
chain: T1 sequence
